Assay results: patent US20240050587A1, “LIPOSOMES COMPRISING ANTI-LOX ANTIBODY” (ISTITUTO SCIENTIFICO ROMAGNOLO PER LO STUDIO E LA CURA DEI …, priority 2019, published 2024)
Structures can show the parent of a compound that is named as a salt. For part of these data: At least one structure is not confirmed: it was looked up by name or label, or the drawing left a doubt. Some results were stated once for a whole list of compounds, not compound by compound.

Key:
secreted LOX protein = experiment: Validation of Lipo-LOX activity: secreted LOX protein in culture medium (western blot); format: cell-based; details: MDA-MB-231 on 3D collagen scaffold; human plasma peak concentration; inhibition seen at 6 h
MDA-MB-231 cells = experiment: In vitro drug testing, MTT cell viability, 3D scaffold cultures; format: cell-based, human; details: 3D culture, 72-hour exposure, epirubicin plasma peak concentration
[1] = tested on: MDA-MB-231 orthotopic xenograft; experiment: In vivo drug testing: tumor growth in orthotopic xenograft (caliper and BLI); design: species or system NU/NU nude mice; details: bioluminescent signal of TNBC, change between Day 0 and Day 33
Description: MDA-MB-231 labeled with luciferase probe (2×10^6 cells/100 μl matrigel) were orthotopically injected into the right mammary fad pad of female immunodeficient NU/NU nude mice [NU-Foxn1nu] 8-10 weeks old (Charles River Laboratories, Wilmington, MA, USA). NU/NU nude mice were housed five per cage at the HMRI animal facility, there were maintained under pathogen free conditions and on low-fluorescence diet according to the National Institutes of Health guidelines.
Tumor size and body weight were measured with caliper and a digital balance once a week. Tumor volume was calculated according to the formula (W×W×L)/2, where W and L represent the width and the length of tumor, respectively. Body weight change % was calculated were calculated by comparing weights at the start and end of therapy throught the formula throught the formula weight DO/weight D33%.
Furthermore, the impact on tumor growth was validated by performing bioluminescence imaging (BLI) of TNBC tumors at Day 0 and Day 33 (FIG. 4B, Figure S4 supportive information). This was performed in order to support the caliper measurements since the bioluminescent signal obtained from BLI is directly related to the viability of cells and could serve as metric to evaluate impact of therapy. The BLI quantification percentage was calculated throught the formula BLI DO/BLI D33%. […]

## COc1cccc2c1C(=O)c1c(O)c3c(c(O)c1C2=O)C[C@@](O)(C(=O)CO)C[C@@H]3O[C@H]1C[C@H](N)[C@@H](O)[C@H](C)O1 [Free EPI, epirubicin hydrochloride]
Secreted LOX protein
  secreted LOX protein in culture medium: detectable
MDA-MB-231 cells
  cell death: < 80%
[1]
  BLI quantification percentage (D0 vs D33): did not result in statistical significance
